From PubChem BioAssay AID1347426 (Functional Genomics Laboratory (NCATS/FGL), 2020)
The whole screen tested about 31,000 sequences, of which about 1,400 (4.5%) were called active.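 Rule for the calls: active = median seed-adjusted z-score above 1 or below -1; inactive = the rest.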 The list shows a part of the results.

Test: Novel Modifiers of Survival Motor Neuron (SMN) Protein: Gene Identification via Genome-wide siRNA Screen;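 note: luminescence tracks full-length SMN protein made from the SMN2 reporter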
Details: HEK293T SMN2-luciferase reporter, siRNA knockdown, 72 h; actives lie on both sides
In short: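 Genome-wide siRNA screen (10418 genes, 3 siRNAs each, 1 pmol per well) by reverse transfection in HEK293T cells stably carrying an SMN2-luciferase reporter; luminescence after 72 hours, normalized to negative-control siRNA, log10-transformed, MAD-scored.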

Sequence | median seed-adjusted z-score
GGUCUGUGCUAACAAGGAATT against GSR | inactive: -0.467
GGAUGAGUUUUUAGAUCUUTT against GPSM2 | inactive: -0.755
CGUGCACAAAGAUAGACUATT against MATN2 | inactive: 0.275
CGGAUGAAAUGGAAACGCATT against MNX1 | inactive: 0.734
GAUAAUGCCCAGACAUUUUTT against CLDN11 | inactive: 0.268
GAAGUAACCAGAUCCAGUATT against RASA2 | inactive: -0.913
CCAGGAUCUUAAUGUUUCUTT against CLDN22 | inactive: 0
GGAUCACACUGACCUUGGATT against ZDHHC23 | inactive: -0.536
CAAGCAAACUGAUUCAGCATT against CDS2 | inactive: -0.811
GGAAGACUACCAAAUCGAATT against TTN | inactive: 0.872
GCUGAUCCCUUGCUAUGAATT against ITGA9 | inactive: 0
GCAACUUACAUCAACUACATT against PPP1R7 | inactive: 0.0505
CAUGCGGCUUUAUAGCAUUTT against UBR3 | inactive: -0.894
CGUCAAUAAGAAAUCGCAATT against ZNF268 | inactive: 0.0358
GGAUGACAAAAGACUGAUUTT against NTM | inactive: 0
GGAGAGAGGUCCAGUCUGATT against BIRC7 | active: -1.44
GGAAAAUGGGAGUAUCUUATT against CDYL2 | inactive: -0.379
AGCCGUCAAUUGUUCAUCUTT against CD59 | inactive: 0.79
GGACAUCUGUGCUGUCAAATT against SYN2 | inactive: -0.375
GAUUGACCUGCGUUACGAATT against ADCK2 | inactive: 0.0823
GCAUAUCUGCUAGGGAUAATT against MYO1E | inactive: -0.02
GCAGAAGCGUGGCAUUGUGTT against INS | inactive: 0

Sequence | median seed-adjusted z-score
CAAGUACUGUGGGACCAAATT against NRP2 | inactive: 0.477
CCAAGAAACUAACACGCUATT against PFKFB2 | inactive: 0.311
ACACGGAGGUGUUCAGGAATT against SBF1 | inactive: 0.192
GCCUCAUGGUUCUAGUAAATT against E2F2 | inactive: -0.382
UCGACGUGAUCAUCACUGATT against SRM | inactive: 0
AGAAGAACCAGAGCUUCAATT against MSL3 | inactive: 0.423
UGGUCAACCUGCAAGUGAATT against RHOD | inactive: 0
GUAACUGCAUUCAACUUGATT against OSMR | inactive: 0.548
GUAUUUGUACGUUUUAUUUTT against SCRT1 | inactive: -0.483
GCACCAAACUUAGCUACGATT against DIS3L2 | inactive: -0.265
GCAGAUAAAAUUAGAGUAATT against SRPK2 | inactive: 0.654
GAAAGGACAUCACAGGUAATT against NQO1 | inactive: 0
CUGCCUUGAUGACACCAGATT against TRIM16 | inactive: 0.345
GCAUCCACGUCAUUGACCATT against TBCB | inactive: 0.69
AGAAGACUCUGGUAAUGUATT against WHSC1 | active: 1.17
UCAACAUCGUCUACCAGGATT against SCNN1D | active: -1.8
GGAAGAGAUGGAUCAGAAATT against RNF11 | inactive: -0.365
CAUCUUAUCUACAUCUUAUTT against KCNK18 | inactive: 0.115
GAUUCUGGAUUAUACUCCATT against SLC24A2 | inactive: 0.136
CAAGAAUCAUUAAUACAAATT against CCL2 | inactive: 0.651
AAGUCAUCAAGUUUACUAATT against NR1I3 | inactive: 0.000933
CUUUAUCGGUGACAAGUUATT against ADCY7 | inactive: -0.0202

Sequence | median seed-adjusted z-score
CGACGGCACCAACUUCACATT against SUSD2 | inactive: 0.422
GAACGACUGGGUAACAGUATT against CDH17 | inactive: -0.167
AGAUCAUCGCGUUCAGCAATT against PRDX2 | inactive: -0.359
AGAGAGGAGUGAAUAACUUTT against OGFOD2 | inactive: 0.493
CUUUAGAAGGAUUAGAUUATT against PCDHGA7 | inactive: 0.705
GGAUUUAUCAAGGGACGAATT against ACADL | inactive: 0.223
CCGCCUCUUUAGUUAUACATT against PDK4 | inactive: -0.693
ACCUGACUAUCACCAUGCATT against CD7 | inactive: 0.249
GUUUGAUAUGGAUCGCUUATT against PROX1 | inactive: -0.372
GAAUGGACAAGGUACCAGATT against ATP12A | inactive: -0.0941
CAUCAUUACUGUUGAGGGATT against CSRP2BP | inactive: -0.526
CGAAAAGUCUCACAGUGGATT against ZNF563 | inactive: 0.00283
CCUUACUCUCCAUCAAAUATT against ZNF383 | inactive: -0.196
GCAACACUGUGGUCAUGGUTT against ALDH16A1 | inactive: 0.42
CACUUCGGAUUUUACCGUATT against CDADC1 | inactive: 0.544
CCAGUAGCCCAGACUAAGATT against PTPRK | inactive: 0
GUGUCUGGAUUUUCACUGATT against F11 | inactive: -0.0319
GCGAGUAUCUGAUCCAGCATT against ABCB9 | inactive: 0.151
GGUUGUAAUUCUACUCUAATT against ZNF572 | inactive: 0.237
GGACCUAUACUUACGAAAATT against CTNNB1 | inactive: 0.0802
GGUGGGCGUGAGUUUCUUATT against B3GNT6 | inactive: 0.00618
GGCUCUUACAGGUGAAUCATT against GRIP1 | inactive: 0.337

A different layout for part of the listing above:
Sequence	median seed-adjusted z-score
AGAGAGGAGUGAAUAACUUTT against OGFOD2	inactive: 0.493
ACCUGACUAUCACCAUGCATT against CD7	inactive: 0.249
GGUGGGCGUGAGUUUCUUATT against B3GNT6	inactive: 0.00618

Continuation:

Sequence | median seed-adjusted z-score
GGCCUAUACUAAUUGCUUUTT against ZNF705A | inactive: 0.669
CAGCUACAUUUGCACAACATT against BCL11B | inactive: 0.163
GAGUGUUCAUUUUUCGUUUTT against POU3F1 | inactive: 0.279
GGCUAGGGAUACUCACUCATT against NAGK | inactive: 0.446
CACCGUGUUUGACAACUAUTT against RAC2 | inactive: -0.596
UGUUAUAAGUCGAACUGAATT against RBBP6 | inactive: -0.212
GUUCUCCCGUGAGAAGAAATT against ADRA1D | inactive: -0.18
GGAGGUUCUUCUGAGUACATT against SMC1A | inactive: -0.362
CCAUGGAUUUAUUACGAGUTT against WDR64 | inactive: -0.25
GGAUAUGAACCACACGGAATT against GPR143 | inactive: 0.366
CCGAAAGUCUGCAUCCAAATT against ACTR8 | inactive: -0.366
CAGCAUGACCGGUCAGAUATT against CDADC1 | inactive: 0.544
GCAAUGUAGAAGGCCUAUATT against ROM1 | inactive: 0.41
CAAUCCAAGUAGAAUGAAUTT against ECHDC1 | inactive: 0.554
GAUGGAUACGAAUUCAAGUTT against LGALS1 | inactive: 0.033
GGCUCACGGCUGCAUUUGATT against BPHL | inactive: -0.161
CUUCACUACUGGUAAUUAATT against PRMT6 | inactive: -0.412
GCAGUUGAAUUACUAGGAATT against NAPG | inactive: 0.0128
GCAGCUGUUUGGAACCAAATT against TRIM47 | inactive: 0.707
GCAAGGCAAUGACAAUGGUTT against 1-Mar | inactive: 0
GGAAAGUAGCAGACCUAGATT against TOPORS | inactive: 0.381
GGAAAAGCGAAUAAAGGAATT against MYB | inactive: 0.307

Given as tab-separated lines: part of the list above.
Sequence	median seed-adjusted z-score
CACCGUGUUUGACAACUAUTT against RAC2	inactive: -0.596
UGUUAUAAGUCGAACUGAATT against RBBP6	inactive: -0.212
GUUCUCCCGUGAGAAGAAATT against ADRA1D	inactive: -0.18
GGAGGUUCUUCUGAGUACATT against SMC1A	inactive: -0.362

Remaining list, next part.

Sequence | median seed-adjusted z-score
CAGACACCAUACUCCAUUATT against MYO7B | inactive: -0.167
AGGGCAACAUCAUCGCAUUTT against NEURL | inactive: -0.268
GGAAGCCCAUGACCACUAATT against GTF2F1 | inactive: -0.556
CCAUAACACCGGAUCAAGUTT against FIGNL1 | inactive: -0.408
GAAACUCUCUUCAAGUCUATT against CKB | inactive: -0.236
GACCAUCUAUUUAAGCUGATT against AARSD1 | inactive: -0.156
GCGCAACAGCGAACUAGAATT against MID2 | inactive: -0.0363
GGAUUUCACCGUCGUCUUUTT against PGA5 | inactive: -0.149
GGAAUGCAAUUCUCAGAGATT against LCN2 | inactive: 0.123
CACCGUUCAUCUGCACAGATT against KATNA1 | inactive: -0.471
CGUGUGAACCAUCCUAAUATT against MAP3K7 | inactive: -0.23
GCAUCGUCACUGUCAUGAATT against ITPR3 | active: -1.28
GCUCCAAAAGAGAUAAACATT against RGS2 | inactive: 0.00236
AAAGACCAGUGAACACUCATT against GPR42 | inactive: -0.0972
GGAGAGGUUCAAAUGCAUUTT against RAB34 | inactive: 0.342
CUAUAUCCAGAGACCUCUATT against CA10 | inactive: 0.255
ACCUUUAACUGGUCCACAATT against ZNF138 | inactive: -0.0937
AGCCCUUGACCUUAUCUAATT against CSTB | active: 1.08
CUAAAGAUCAUGAAAGUGATT against MLX | inactive: 0.126
GGACCAAGACAAGAUUGAATT against TRAF2 | inactive: -0.00463
